Where “and” joins values, the source holds several entries; their conditions need not be identical. Equal values may be shown once. The campaign covered roughly 400,000 compounds. About 3,700 (0.93%) were called active. The inconclusive results got no clear call from the source; some entries with a clear call stand among them for comparison. Calls follow the shape of the dose curve; as a rule, active = well fitted inhibition curve with a large enough effect; inconclusive = small, poorly fitted or top-dose-only effect, or another doubt; inactive = no such curve, though single readings can be large or run the other way. Potencies beside an inconclusive call are fits to weak or partial responses and may not hold up.
molecular target: Vitamin D3 receptor (Homo sapiens) (UniProt P11473); assay: Inhibitors of the vitamin D receptor (VDR): qHTS; details: VDR-SRC2-3 peptide fluorescence polarization, 2 h; max response, negative = inhibition: stronger effect = lower value
How it was run: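 Inhibition of the VDR/SRC2-3 peptide interaction is quantified by fluorescence polarization. Compounds (23 nl, pintool) incubate with the reagents for 2 hours at ambient room temperature.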
% is scaled to controls: 0 for no effect and ±100 for the full control effect; potency is read from the fitted curve at half-maximal effect.

Amino acid sequences for entries named in this document (tags omitted). A change or cut given only in a name is not applied to a line headed by its entry.
UniProt P11473: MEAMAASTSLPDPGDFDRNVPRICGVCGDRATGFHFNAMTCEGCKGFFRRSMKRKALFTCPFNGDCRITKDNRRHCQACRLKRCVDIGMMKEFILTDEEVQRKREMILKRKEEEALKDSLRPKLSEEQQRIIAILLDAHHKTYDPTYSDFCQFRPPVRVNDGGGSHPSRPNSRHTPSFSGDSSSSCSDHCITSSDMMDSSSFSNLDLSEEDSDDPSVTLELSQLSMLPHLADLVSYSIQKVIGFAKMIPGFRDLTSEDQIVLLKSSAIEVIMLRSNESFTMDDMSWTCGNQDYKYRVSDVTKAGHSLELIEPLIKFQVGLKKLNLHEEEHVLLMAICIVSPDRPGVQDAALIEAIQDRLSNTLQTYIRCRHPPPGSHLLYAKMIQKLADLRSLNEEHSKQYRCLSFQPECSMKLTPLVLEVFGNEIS

Potency, active:
CSc1ccc(/C=C2/C(C)=C(CC(=O)O)c3cc(F)ccc32)cc1 44.7 µM
N#CC1=C(N)NC(=S)C(C(N)=O)C1c1ccc(Cl)cc1Cl (stereo unspecified) 22.4 µM
Cc1ccc(CSC2=NS(=O)(=O)c3ccccc32)cc1 31.6 µM
C=CC(=O)c1ccc(CCCCCC)cc1 4.47 µM and 39.8 µM
CNC(CC(=O)c1ccc([N+](=O)[O-])cc1)C(Cl)(Cl)Cl (stereo unspecified) 17.8 µM
C=CCN1C(=O)/C(=c2\sc3nc(=O)c(Cc4ccccc4Cl)nn3c2=O)c2ccccc21 35.5 µM
COC1=CC(=O)C(O)=C(CCCCCCC/C=C/CCCCCCCC2=C(O)C(=O)C=C(OC)C2=O)C1=O 44.7 µM

Potency, inconclusive:
O=C(CCCN1C(=O)/C(=C\c2ccccc2)SC1=S)Nc1ccc(C(=O)O)cc1 89.1 µM [inhibitor, partial curve, poor fit]
CC(=O)N1CCN(C(=O)c2cc(S(=O)(=O)N3CCCCC3)ccc2Cl)CC1 89.1 µM [inhibitor, single point]
CCCC1=NN(c2ccc([N+](=O)[O-])cc2)C(=O)/C1=C\N(C)C 89.1 µM [inhibitor, single point]
CCOC(=O)C1(CCc2ccccc2)CCN(C(=O)CN2CCOC2=O)CC1 89.1 µM [inhibitor, partial curve, poor fit]
NC(=O)/C(=C\c1cccnc1)NC(=O)c1ccccc1 5.01 µM [inhibitor, partial curve, poor fit]
Cc1ccc(Cl)cc1NC(=S)N(Cc1ccccc1)Cc1cccnc1 35.5 µM [inhibitor, partial curve, poor fit]
CCOc1cc(C(c2c(C)[nH][nH]c2=O)c2c(C)[nH][nH]c2=O)ccc1OCc1ccc([N+](=O)[O-])cc1 79.4 µM [inhibitor, single point]
CCCCC(=Nc1ccc(N)cc1)C1=C(O)C(C(=O)OC)C(C)(C)CC1=O (stereo unspecified) 31.6 µM [inhibitor, partial curve, poor fit]
Oc1c(N=Nc2ccccn2)ccc2ccccc12 70.8 µM [inhibitor, single point]
Oc1ccc(Nc2nc3ccccc3nc2Nc2ccc(O)cc2)cc1 39.8 µM [inhibitor, single point]
O=C(c1ccco1)N(CCC(c1ccccc1)c1ccco1)Cc1ccc(F)cc1 (stereo unspecified) 70.8 µM [inhibitor, single point]
CCC(=O)CC 89.1 µM [inhibitor, single point]
Cc1cccc2c1N(CCOc1ccccc1Cl)C(=O)C2=O 70.8 µM [inhibitor, single point]
O=C(/C=C/c1ccco1)c1ccc(NC(=O)C23CC4CC(CC(C4)C2)C3)cc1 100 µM [inhibitor, single point]
O=c1[nH][nH]c(-c2ccccc2O)c1C(C[N+](=O)[O-])c1ccc(Br)cc1 (stereo unspecified) 89.1 µM [inhibitor, single point]
CCn1c2ccccc2c2cc(CN3CCN(Cc4cc(OC)ccc4O)CC3)ccc21 100 µM [inhibitor, single point]
COc1cccc(N2CC(C(=O)Nc3nnc(SCCC4OCCO4)s3)CC2=O)c1 (stereo unspecified) 89.1 µM [inhibitor, single point]
Cc1ccc2oc(-c3cc(NC(=O)c4ccco4)ccc3Cl)nc2c1 89.1 µM [inhibitor, single point]
O=C(Cn1c2c(sc1=O)C1c3ccccc3OCC1CS2)Nc1ccc(Cl)c(Cl)c1 (stereo unspecified) 63.1 µM [inhibitor, partial curve, poor fit]
COc1cccc(C(c2c(C)[nH]n(-c3ccccc3)c2=O)c2c(C)[nH]n(-c3ccccc3)c2=O)c1OC 89.1 µM [inhibitor, partial curve, poor fit]
CCCCN(CCCC)C(=O)c1sc2nc(N3CCOCC3)c3c(c2c1N)CCCC3 56.2 µM [inhibitor, partial curve, poor fit]
CC(C)/C=C/CN1CCN(CCCc2ccccc2)C(CCO)C1 (stereo unspecified) 89.1 µM [inhibitor, single point]
COc1cc2c(cc1C1C(C#N)=C(N)OC3=C1C(=O)CC(C)(C)C3)OCO2 (stereo unspecified) 5.01 µM [inhibitor, partial curve, poor fit]
COc1cc(C(=O)Oc2ccc(Br)cc2C(=S)N2CCOCC2)cc(OC)c1OC 100 µM [inhibitor, single point]
COc1ccccc1C(=O)NC(=S)/C=C1/N(C)c2ccccc2C1(C)C 89.1 µM [inhibitor, single point]
O=C(CSc1nnc(-c2ccc3c(c2)OCO3)o1)Nc1ncc(Cl)cc1Cl 89.1 µM [inhibitor, partial curve, poor fit]
Cc1nc(Nc2ccc(Cl)cc2)c2oc3ccccc3c2n1 56.2 µM [inhibitor, partial curve, poor fit]
CCOC(=O)c1c(C)nsc1NCc1ccccc1 89.1 µM [inhibitor, single point]
C=CCNC(=O)C1CC(=O)N(c2ccc(OCC(=O)Nc3ccc(Cl)cc3)cc2)C1 (stereo unspecified) 50.1 µM [inhibitor, single point]
OCc1ccc(-c2nn(Cc3ccccc3)c3ccccc23)o1 56.2 µM [inhibitor, partial curve, poor fit]
Cc1nn(-c2ccccc2)c(Cl)c1/C=C(\C#N)C(=O)NC(C)C 56.2 µM [inhibitor, partial curve, poor fit]
O=c1c2ccccc2nnn1CSc1ccccc1 70.8 µM [inhibitor, partial curve]
O=C(O)C1CSC(c2ccc3c(c2)OCO3)N1 (stereo unspecified) 50.1 µM [inhibitor, partial curve, poor fit]
Cc1cc(C(=O)CSc2nnc(-c3ccc(Cl)cc3)n2CC2CCCO2)c(C)n1C (stereo unspecified) 7.94 µM [inhibitor, partial curve, poor fit]
N#C/C(=C\c1c(Oc2ccccc2Cl)nc2ccccn2c1=O)C(=O)NC1CCS(=O)(=O)C1 (stereo unspecified) 70.8 µM [inhibitor, partial curve, poor fit]
Cc1ccc(C(=O)NCC(C)NC(=O)c2ccc(C)c([N+](=O)[O-])c2)cc1[N+](=O)[O-] (stereo unspecified) 79.4 µM [inhibitor, partial curve, poor fit]
Cc1cc2nc(-c3cc(NC(=O)c4cc5ccccc5o4)ccc3Cl)oc2cc1C 100 µM [inhibitor, partial curve, poor fit]

Ordered by count of non-hydrogen atoms (descending): three of the compounds above
Potency, inconclusive:
Cc1cc(C(=O)CSc2nnc(-c3ccc(Cl)cc3)n2CC2CCCO2)c(C)n1C (stereo unspecified) 7.94 µM [inhibitor, partial curve, poor fit]
Oc1ccc(Nc2nc3ccccc3nc2Nc2ccc(O)cc2)cc1 39.8 µM [inhibitor, single point]
Cc1nn(-c2ccccc2)c(Cl)c1/C=C(\C#N)C(=O)NC(C)C 56.2 µM [inhibitor, partial curve, poor fit]

Following part.

Max response, negative = inhibition, inactive:
Cc1nn2c(C)c(C(=O)NCC(C)c3ccccc3)cnc2c1-c1ccccc1 (stereo unspecified) 2.03%
COc1ccc(S(=O)(=O)N2CCOCC2)cc1NC(=O)CSc1nc(C)c(C)c(C)n1 -20.2%
S=c1[nH]nc(-c2ccc(Cl)cc2)n1/N=C/c1ccco1 4.67%
COc1ccc(S(=O)(=O)Nc2ccccc2OC)cc1NC(=O)c1cc2ccccc2oc1=O 9.17%
O=c1[nH]c2c(s1)C(c1ccc(O)cc1)C1C3CCC(C3)C1S2 (stereo unspecified) -26.1%
COc1cccc(-c2nc(CS(=O)(=O)CC(=O)Nc3c(C)cc(C)cc3C)c(C)o2)c1 -4.38%
O=C(NC1CC(=O)N(c2ccc(Cl)cc2)C1)c1ccc2c(c1)OCO2 (stereo unspecified) 4.51%
CCCCCCCCCCCCCCCC(=O)NCCCC(=O)O 0.913%
COc1ccc(-n2c(=O)c3c4c(sc3n(CC(=O)Nc3cc(C)[nH]n3)c2=O)CCCC4)c(OC)c1 26.9%
CCOc1ccc(CCNC(=O)Cn2ncc3c(=O)oc4ccc(C)cc4c32)cc1 4.88%
C(=N\Nc1nc(-c2ccccc2)cs1)/c1cccnc1 6.02%
Cc1ccc(CNC(=O)c2nn(C)c3c2CS(=O)(=O)c2ccccc2-3)cc1 0% and -26.2%
Cc1ccc(-c2nn(-c3ccccc3)cc2CO)o1 -4.4%
O=C(O)/C(=C\c1ccco1)NC(=O)c1ccccc1 -8.22%
COc1ccc(C(NCC(=O)NC(C)c2ccc(Cl)cc2)c2ccccc2)cc1 (stereo unspecified) -10.6%
CCCc1ccc(C(=O)NNc2cc(Cl)ccc2Cl)cc1 -2.69%
c1ccc(COc2ccc(OCCn3cncn3)cc2)cc1 -7.99%
COc1ccc(NC(=O)c2sc3nc4n(c(=O)c3c2C)CCC4)cc1Cl -0.95%
COC(=O)[C@]1(Cc2ccccc2)N[C@H](CN(C)C(=O)Nc2ccc(Cl)cc2)[C@@H]2C(=O)N(Cc3ccccc3)C(=O)[C@@H]21 0.446%
O=C1NC[C@H](Cc2ccccc2)N(C[C@H]2CCCN2C[C@H](Cc2ccccc2)N2C[C@H](Cc3ccccc3)N(CCc3ccccc3)C(=O)C2=O)C1=O -12.7%
O=C(Cc1cccs1)N1CCN(c2ccc([N+](=O)[O-])cc2)CC1 -10.5%
COc1ccc(-c2nc3cnc(OC)nc3n(CCc3ccccc3)c2=O)cc1 2.14%
